The assay concerns the target T1, C3aR (human (endogenous in hNSC)) (UniProt Q16581).
T1 sequence: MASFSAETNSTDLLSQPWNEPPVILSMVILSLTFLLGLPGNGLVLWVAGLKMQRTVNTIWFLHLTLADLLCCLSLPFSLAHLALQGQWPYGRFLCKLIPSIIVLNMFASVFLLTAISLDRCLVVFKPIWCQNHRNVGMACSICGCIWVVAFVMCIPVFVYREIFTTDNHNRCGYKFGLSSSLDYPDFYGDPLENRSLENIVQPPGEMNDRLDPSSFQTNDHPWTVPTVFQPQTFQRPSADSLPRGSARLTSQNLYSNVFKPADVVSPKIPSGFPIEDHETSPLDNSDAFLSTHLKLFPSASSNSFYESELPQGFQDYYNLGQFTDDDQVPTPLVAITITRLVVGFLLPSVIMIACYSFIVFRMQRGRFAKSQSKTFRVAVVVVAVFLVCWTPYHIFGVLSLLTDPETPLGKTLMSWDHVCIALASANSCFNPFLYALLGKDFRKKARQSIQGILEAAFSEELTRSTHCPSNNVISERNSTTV
The experiment in a line: proximity ligation; matched ligand-receptor positive control C3a-C3aR on hNSC; Duolink in situ Red kit; fluorescent punctae per cell counted; source and concentration of C3a not told.

Sequences of proteins named here, by UniProt entry; tags and fusion partners are left off. Residues count along the entry.
UniProt P01024, residues 672-748: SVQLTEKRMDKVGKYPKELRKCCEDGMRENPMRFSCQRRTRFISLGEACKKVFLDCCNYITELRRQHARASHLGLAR

No constants are given. Whether binding was seen depends on the method and setting. In cells and extracts the contact can be indirect. Some results given as binding are weak or reduced against the parent protein; the word gives no strength.

With “C3a (from UniProt P01024 672-748) (ligand)”, the binding result is given as “binds”.

The values above are taken from article PMC7476762.
